# Measured values published in the supplement of paper PMC10849652.
# By UniProt entry, the sequences of proteins in these tests, tags left out. Where a name states a change or a piece, a line headed by the entry shows the natural chain unless it says otherwise.
# UniProt P78337, whole entry, looked up: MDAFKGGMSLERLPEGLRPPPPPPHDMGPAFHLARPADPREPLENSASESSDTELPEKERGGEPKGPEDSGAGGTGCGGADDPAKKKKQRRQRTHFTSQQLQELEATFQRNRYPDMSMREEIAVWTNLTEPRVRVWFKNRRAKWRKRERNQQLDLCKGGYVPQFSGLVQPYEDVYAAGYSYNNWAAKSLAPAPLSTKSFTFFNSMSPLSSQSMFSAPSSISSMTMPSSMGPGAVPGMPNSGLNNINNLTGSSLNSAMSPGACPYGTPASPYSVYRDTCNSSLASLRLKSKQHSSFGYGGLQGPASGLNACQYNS
# UniProt Q8IXK0: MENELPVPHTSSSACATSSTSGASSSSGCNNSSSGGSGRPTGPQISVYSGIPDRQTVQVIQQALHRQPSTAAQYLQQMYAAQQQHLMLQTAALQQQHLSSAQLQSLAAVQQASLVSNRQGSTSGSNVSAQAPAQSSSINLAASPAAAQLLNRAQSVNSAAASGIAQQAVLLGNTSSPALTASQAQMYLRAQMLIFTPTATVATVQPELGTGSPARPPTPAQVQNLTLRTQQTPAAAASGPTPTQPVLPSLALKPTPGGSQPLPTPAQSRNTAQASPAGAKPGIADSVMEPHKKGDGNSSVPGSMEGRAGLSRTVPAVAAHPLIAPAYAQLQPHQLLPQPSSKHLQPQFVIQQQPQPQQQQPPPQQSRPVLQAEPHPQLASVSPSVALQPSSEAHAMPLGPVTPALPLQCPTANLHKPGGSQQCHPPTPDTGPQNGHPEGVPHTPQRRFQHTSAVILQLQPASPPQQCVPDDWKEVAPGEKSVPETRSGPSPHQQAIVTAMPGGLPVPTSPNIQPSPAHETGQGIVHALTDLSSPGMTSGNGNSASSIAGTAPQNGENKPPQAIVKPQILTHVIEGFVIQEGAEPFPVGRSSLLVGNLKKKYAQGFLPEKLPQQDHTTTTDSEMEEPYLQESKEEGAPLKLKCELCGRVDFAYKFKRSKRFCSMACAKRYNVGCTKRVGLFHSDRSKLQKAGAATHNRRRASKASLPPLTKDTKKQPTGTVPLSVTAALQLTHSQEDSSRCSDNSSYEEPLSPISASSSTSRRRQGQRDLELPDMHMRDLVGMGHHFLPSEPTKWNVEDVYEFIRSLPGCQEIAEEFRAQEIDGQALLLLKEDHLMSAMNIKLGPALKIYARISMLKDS
# UniProt O14986: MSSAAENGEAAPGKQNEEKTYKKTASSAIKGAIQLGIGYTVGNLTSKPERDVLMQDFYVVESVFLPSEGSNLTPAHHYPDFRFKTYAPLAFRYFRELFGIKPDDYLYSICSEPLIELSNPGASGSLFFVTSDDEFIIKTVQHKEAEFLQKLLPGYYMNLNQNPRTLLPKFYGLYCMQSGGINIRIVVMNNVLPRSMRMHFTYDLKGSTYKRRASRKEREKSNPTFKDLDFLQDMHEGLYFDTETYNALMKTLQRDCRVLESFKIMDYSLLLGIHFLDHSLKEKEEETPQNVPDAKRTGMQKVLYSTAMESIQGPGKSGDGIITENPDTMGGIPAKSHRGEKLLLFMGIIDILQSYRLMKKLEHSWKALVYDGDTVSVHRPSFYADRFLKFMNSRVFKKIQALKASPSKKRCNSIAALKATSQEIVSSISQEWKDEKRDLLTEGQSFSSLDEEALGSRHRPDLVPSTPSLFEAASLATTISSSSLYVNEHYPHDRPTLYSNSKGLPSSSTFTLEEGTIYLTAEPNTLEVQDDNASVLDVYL
# UniProt Q96JA3: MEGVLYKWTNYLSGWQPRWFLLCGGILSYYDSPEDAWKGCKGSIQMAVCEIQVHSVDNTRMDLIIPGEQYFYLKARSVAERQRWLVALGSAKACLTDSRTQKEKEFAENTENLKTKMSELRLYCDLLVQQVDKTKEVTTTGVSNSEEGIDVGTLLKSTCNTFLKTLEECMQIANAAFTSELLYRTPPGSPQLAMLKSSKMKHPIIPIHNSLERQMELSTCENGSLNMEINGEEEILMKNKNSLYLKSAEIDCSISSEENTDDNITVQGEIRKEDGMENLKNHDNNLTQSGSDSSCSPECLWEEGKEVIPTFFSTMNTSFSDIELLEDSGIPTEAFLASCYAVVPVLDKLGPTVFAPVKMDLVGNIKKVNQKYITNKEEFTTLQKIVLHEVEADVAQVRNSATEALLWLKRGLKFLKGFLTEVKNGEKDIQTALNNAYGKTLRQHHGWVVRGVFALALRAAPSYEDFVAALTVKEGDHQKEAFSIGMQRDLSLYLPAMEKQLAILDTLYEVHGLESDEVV
# UniProt Q99640: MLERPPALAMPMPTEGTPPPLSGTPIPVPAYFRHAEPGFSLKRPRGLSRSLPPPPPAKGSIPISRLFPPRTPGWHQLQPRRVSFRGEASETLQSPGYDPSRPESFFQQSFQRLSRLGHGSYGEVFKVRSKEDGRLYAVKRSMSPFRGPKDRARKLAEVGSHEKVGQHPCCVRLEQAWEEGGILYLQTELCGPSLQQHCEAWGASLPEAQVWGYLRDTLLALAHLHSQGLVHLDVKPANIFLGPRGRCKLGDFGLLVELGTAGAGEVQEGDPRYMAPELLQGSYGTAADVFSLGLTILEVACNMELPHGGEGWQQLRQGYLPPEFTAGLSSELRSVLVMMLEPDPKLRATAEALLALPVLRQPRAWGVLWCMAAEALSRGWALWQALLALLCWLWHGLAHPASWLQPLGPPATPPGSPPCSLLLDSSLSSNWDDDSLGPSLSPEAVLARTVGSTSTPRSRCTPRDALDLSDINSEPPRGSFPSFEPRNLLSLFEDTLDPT
# UniProt O75167: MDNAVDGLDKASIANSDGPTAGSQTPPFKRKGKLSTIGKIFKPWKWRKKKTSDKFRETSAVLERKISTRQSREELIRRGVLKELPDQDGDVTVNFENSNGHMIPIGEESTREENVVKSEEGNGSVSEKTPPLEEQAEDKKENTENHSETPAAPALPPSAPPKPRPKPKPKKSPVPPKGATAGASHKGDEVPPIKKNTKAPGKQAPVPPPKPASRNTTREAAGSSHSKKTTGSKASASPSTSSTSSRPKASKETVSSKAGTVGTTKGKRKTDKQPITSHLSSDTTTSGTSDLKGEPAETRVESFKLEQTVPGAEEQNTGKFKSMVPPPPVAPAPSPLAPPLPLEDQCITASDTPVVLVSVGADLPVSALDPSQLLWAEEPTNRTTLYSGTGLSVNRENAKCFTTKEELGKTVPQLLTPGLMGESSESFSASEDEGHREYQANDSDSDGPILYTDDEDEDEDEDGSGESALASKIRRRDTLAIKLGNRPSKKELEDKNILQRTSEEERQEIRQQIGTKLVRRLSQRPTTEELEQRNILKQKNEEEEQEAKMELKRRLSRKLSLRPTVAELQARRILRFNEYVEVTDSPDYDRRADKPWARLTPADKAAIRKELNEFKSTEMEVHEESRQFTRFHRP
# UniProt O00443: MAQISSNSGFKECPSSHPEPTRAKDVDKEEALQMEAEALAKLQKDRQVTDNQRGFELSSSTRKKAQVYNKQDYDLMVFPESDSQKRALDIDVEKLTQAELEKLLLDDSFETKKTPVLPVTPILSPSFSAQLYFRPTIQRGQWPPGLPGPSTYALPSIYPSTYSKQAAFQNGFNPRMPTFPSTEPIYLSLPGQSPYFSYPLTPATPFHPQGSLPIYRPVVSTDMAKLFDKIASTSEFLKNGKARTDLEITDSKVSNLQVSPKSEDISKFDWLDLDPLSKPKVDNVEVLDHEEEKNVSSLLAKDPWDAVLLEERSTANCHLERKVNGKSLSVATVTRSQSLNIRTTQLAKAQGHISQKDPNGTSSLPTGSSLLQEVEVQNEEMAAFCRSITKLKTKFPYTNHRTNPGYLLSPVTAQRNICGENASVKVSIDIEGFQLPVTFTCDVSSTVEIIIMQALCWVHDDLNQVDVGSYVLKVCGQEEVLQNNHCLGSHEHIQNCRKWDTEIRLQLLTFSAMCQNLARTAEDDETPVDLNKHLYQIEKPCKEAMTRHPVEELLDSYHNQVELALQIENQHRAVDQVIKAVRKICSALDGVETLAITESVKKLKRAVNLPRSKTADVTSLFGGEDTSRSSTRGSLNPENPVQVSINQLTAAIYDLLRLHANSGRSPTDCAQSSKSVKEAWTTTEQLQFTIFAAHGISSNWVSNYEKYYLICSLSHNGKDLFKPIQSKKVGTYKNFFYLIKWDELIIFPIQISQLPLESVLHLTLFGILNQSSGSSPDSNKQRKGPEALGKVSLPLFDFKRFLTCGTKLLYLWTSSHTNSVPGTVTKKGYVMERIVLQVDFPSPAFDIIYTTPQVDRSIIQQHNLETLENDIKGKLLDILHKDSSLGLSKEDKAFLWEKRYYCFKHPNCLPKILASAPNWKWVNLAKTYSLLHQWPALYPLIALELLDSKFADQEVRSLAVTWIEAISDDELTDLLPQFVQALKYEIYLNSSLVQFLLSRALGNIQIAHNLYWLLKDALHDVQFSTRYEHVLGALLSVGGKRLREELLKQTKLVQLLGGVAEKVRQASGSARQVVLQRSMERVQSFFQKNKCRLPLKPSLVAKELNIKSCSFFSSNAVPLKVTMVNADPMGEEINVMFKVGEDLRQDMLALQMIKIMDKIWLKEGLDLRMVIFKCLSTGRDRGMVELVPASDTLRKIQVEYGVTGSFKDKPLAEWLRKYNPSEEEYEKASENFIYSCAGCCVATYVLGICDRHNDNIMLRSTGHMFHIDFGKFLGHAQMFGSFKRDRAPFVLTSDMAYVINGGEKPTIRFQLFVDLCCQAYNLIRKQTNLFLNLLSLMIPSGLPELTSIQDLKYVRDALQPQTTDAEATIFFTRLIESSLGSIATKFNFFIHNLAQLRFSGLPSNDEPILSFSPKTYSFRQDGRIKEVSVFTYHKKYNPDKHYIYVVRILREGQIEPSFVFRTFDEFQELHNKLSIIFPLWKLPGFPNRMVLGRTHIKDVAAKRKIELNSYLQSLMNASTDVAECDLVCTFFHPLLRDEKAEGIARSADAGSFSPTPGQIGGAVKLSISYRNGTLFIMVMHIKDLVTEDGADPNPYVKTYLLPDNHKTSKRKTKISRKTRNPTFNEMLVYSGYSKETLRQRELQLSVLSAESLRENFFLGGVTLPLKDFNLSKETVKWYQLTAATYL
# UniProt Q9HB20: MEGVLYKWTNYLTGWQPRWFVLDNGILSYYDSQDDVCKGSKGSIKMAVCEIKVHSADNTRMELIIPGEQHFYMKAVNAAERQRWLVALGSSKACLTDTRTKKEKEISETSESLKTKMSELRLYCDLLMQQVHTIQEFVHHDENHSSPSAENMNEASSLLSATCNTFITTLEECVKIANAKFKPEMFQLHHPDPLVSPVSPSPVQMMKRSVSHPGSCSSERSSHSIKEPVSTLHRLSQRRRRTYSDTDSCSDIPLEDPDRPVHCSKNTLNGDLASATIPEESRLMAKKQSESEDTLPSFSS
# UniProt Q6ZUJ8: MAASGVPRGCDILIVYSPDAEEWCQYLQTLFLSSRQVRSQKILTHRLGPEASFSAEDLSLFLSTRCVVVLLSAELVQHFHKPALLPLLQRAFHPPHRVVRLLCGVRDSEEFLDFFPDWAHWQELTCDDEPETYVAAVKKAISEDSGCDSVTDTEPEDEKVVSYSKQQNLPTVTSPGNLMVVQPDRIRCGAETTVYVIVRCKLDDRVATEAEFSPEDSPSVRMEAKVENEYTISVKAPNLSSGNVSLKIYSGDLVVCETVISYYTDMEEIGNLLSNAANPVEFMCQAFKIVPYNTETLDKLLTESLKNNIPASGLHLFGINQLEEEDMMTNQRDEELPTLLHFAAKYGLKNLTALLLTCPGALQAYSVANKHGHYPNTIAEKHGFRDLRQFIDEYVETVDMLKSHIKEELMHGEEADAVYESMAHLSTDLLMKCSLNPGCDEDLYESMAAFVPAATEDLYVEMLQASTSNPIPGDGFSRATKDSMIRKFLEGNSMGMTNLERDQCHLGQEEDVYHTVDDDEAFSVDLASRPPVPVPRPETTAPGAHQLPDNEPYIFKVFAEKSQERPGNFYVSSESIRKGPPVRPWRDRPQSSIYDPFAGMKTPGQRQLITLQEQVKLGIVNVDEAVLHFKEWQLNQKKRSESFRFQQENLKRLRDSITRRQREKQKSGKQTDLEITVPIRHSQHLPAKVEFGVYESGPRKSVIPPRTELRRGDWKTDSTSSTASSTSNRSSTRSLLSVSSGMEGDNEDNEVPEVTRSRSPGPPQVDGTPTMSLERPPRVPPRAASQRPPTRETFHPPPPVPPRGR
# UniProt Q86YI8: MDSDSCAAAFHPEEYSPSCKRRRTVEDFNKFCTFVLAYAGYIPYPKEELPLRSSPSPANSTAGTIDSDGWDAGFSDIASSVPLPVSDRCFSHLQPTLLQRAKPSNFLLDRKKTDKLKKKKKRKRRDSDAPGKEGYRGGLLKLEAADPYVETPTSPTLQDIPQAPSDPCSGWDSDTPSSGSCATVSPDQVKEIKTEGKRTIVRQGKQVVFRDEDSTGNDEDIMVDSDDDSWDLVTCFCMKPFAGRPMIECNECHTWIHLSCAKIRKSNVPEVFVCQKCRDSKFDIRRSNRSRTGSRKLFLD
# The list shows a part of the results.
# Key:
# Experiment in all cases: log2 fold change, soluble protein after heating vs DMSO (PISA); higher = thermal stabilisation; K562 lysate, 10 uM; active = over 0.2 and 3.5 SD of the protein, either way, in both replicates (recomputed)
# [1] = compound: NCC(=O)Nc1ccc(-n2nc(C(F)(F)F)cc2-c2ccc3c(ccc4ccccc43)c2)cc1
# How it was run: (§1)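 Dounce homogenisation of K562 pellets in PBS pH 7.4 with 1 mM MgCl2 produced a crude extract, used at 1 mg/mL protein. Exposure to 10 μM compound lasted 30 min, and aliquots were then heated for 3 min across 48°C-58°C, pooled and brought to 0.5% NP-40 at 4°C. The supernatant after 21,000xg for 90 min was quantified by TMTpro 16plex LC-MS/MS with channel sums equalised. Duplicate values are given as log-two fold change in thermal stability relative to solvent controls.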
# [2] = compound: O=C1NC(=O)C(c2cnc3ccccn23)=C1c1cn2c3c(cc(F)cc13)CN(C(=O)N1CCCCC1)CC2
# How it was run: as §1
# entospletinib = compound: c1cn2cc(-c3ccc4cn[nH]c4c3)nc(Nc3ccc(N4CCOCC4)cc3)c2n1 [entospletinib]
# How it was run: as §1
# vorinostat = compound: O=C(CCCCCCC(=O)Nc1ccccc1)NO [vorinostat]
# How it was run: as §1
# silmitasertib = compound: O=C(O)c1ccc2c(c1)nc(Nc1cccc(Cl)c1)c1ccncc12 [silmitasertib]
# How it was run: as §1
target,measurement,setting,value
PITX1 (UniProt P78337),log2 fold change,[1],inactive: 0.225
same,log2 fold change,[2],inactive: -0.105
same,log2 fold change,entospletinib,inactive: 0.046
PHF19 isoform 2 (UniProt Q5T6S3),log2 fold change,[1],inactive: 0.063
same,log2 fold change,entospletinib,inactive: 0.021
PKP4 (UniProt Q99569),log2 fold change,entospletinib,inactive: -0.102
PHC2 isoform 5 (UniProt Q8IXK0),log2 fold change,[1],inactive: -0.065
same,log2 fold change,[2],inactive: -0.024
same,log2 fold change,entospletinib,inactive: 0.044
PHF20 (UniProt Q9BVI0),log2 fold change,[2],inactive: 0.018
PIP5K1B isoform 2 (UniProt O14986),log2 fold change,[2],inactive: 0.015
PLEKHA8 (UniProt Q96JA3),log2 fold change,entospletinib,inactive: -0.187
PLAU (UniProt P00749),log2 fold change,vorinostat,inactive: 0.235
same,log2 fold change,silmitasertib,inactive: -0.052
same,log2 fold change,entospletinib,inactive: 0.072
PKMYT1 (UniProt Q99640),log2 fold change,[1],inactive: -0.031
same,log2 fold change,[2],inactive: -0.062
same,log2 fold change,entospletinib,inactive: 0.001
PHACTR2 isoform 4 (UniProt O75167),log2 fold change,vorinostat,inactive: 0.018
same,log2 fold change,silmitasertib,inactive: 0.083
same,log2 fold change,[2],inactive: -0.035
same,log2 fold change,entospletinib,inactive: -0.227
PIK3C2A (UniProt O00443),log2 fold change,vorinostat,inactive: 0.046
same,log2 fold change,silmitasertib,inactive: -0.085
same,log2 fold change,[2],inactive: 0.031
same,log2 fold change,entospletinib,inactive: 0.055
PLEKHA3 (UniProt Q9HB20),log2 fold change,[2],inactive: 0.065
PIK3AP1 (UniProt Q6ZUJ8),log2 fold change,[2],inactive: 0
same,log2 fold change,entospletinib,inactive: 0.001
PLEC isoform 3 (UniProt Q15149),log2 fold change,[1],inactive: -0.158
same,log2 fold change,[2],inactive: -0.03
same,log2 fold change,entospletinib,inactive: 0.104
PHF13 (UniProt Q86YI8),log2 fold change,[2],inactive: 0.016

# Shown as tab-separated lines: entries from further up.
target	measurement	setting	value
PLAU (UniProt P00749)	log2 fold change	silmitasertib	inactive: -0.052
same	log2 fold change	entospletinib	inactive: 0.072
